Test results as given in PubChem BioAssay AID652054 (National Center for Advancing Translational Sciences (NCATS), 2013).
The campaign covered roughly 360,000 compounds. About 9,100 (2.5%) were called active. Inconclusive results, whose numbers are uncertain, are shown with a selection of clear calls. No stated cut-off is given here; in the data, active means max response below about -50%; inconclusive means no clear call, values can overlap the other calls; inactive means above that.

The chains behind the UniProt entries cited, without tags or fusion partners.
UniProt P35462, whole entry, looked up: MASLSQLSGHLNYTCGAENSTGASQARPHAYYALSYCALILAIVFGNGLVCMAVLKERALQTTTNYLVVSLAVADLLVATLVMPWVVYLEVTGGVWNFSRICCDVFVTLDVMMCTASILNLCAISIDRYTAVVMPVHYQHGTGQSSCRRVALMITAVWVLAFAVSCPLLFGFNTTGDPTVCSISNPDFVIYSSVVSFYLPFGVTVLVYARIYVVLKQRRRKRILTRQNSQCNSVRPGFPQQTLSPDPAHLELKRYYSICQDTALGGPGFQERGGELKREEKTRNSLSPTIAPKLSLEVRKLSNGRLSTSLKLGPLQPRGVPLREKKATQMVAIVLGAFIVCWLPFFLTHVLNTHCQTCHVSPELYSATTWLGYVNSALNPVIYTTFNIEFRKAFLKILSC

target: D(3) dopamine receptor (Homo sapiens) (UniProt P35462); experiment: qHTS of D3 Dopamine Receptor Antagonist: qHTS; settings: D3R cells, DiscoveRx beta-arrestin luminescence, antagonist mode; stronger effect = lower value
How it was run: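 Cells plated overnight at 1500 cells/well, then exposed to library compounds with dopamine controls for 90 minutes at 37 degrees C. DiscoveRx reagent added for 30–60 minutes at room temperature; luminescence read, quantitative HTS format.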
On the % scale 0 is the no-effect control and ±100 the full control effect.

Max response, negative = inhibition, inactive:
CC(CCc1ccccc1)NC(=O)CN(C)Cc1ccccc1F (stereo not given) -0.861%
COc1ccc(Nc2nc(Cl)nc(Nc3ccc(OC)cc3)n2)cc1 -0.118%
Cc1c(C(=O)NCc2ccccc2C(F)(F)F)sc(=O)n1Cc1ccccc1C#N 1.5%
CC1(c2ccc(Cl)cc2Cl)NC(=O)N(CC(=O)NCCC2=CCCCC2)C1=O (stereo not given) -2.12%
CC(C)N(Cc1ccccc1)C(=O)COC(=O)C1CCN(c2ccc(C(F)(F)F)cn2)CC1 1.42%
CC1(C(=O)NS(=O)(=O)Cc2cccc(Cl)c2)CCN1C(=O)Cc1cccs1 (stereo not given) -12.3%
CC[n+]1c(C)cc2c(sc3ccccc32)c1C -6.81%
Cc1cc(N2CCN(C(=O)Oc3ccc([N+](=O)[O-])cc3)CC2)c2ccccc2n1 5.72%
O=C(NCc1nnc(SCC(=O)N2CCCC2)o1)c1ccc(F)cc1 -4.63%
Cc1cccc(NC(=S)NCc2ccc(F)cc2)c1C 0.735%
COc1ccc(C(c2c(C)n(C)n(-c3ccccc3)c2=O)c2c(C)n(C)n(-c3ccccc3)c2=O)c(OC)c1OC 16.7%
CCN(CCNCC(O)COc1ccccc1C(C)C)c1cccc(C)c1 (stereo not given) -16.2%
COC(=O)c1ccccc1Oc1cnc2ccccc2n1 -1.04%
CCCNC(=O)c1c(N)n(-c2cccc(OC)c2)c2nc3ccccc3nc12 75.4%
O=C(CCn1cnc(-c2ccccc2)c1-c1ccccc1)N/N=C/c1ccccc1O -0.543%
CCOC(=O)c1c(C)[nH]c(C)c1C(=O)COC(=O)c1sccc1C 1.05%
CC1=CC(=NOS(=O)(=O)c2ccc(C)cc2)CC(C)(C)C1 0%
CCN(CC)c1ccc(S(=O)(=O)N2CCOCC2)cc1NC(=O)COC(=O)/C=C/c1ccc(C)o1 6.09%

Gathered by group, those above with sulfur (8)
Max response, negative = inhibition, inactive:
Cc1c(C(=O)NCc2ccccc2C(F)(F)F)sc(=O)n1Cc1ccccc1C#N 1.5%
CC1(C(=O)NS(=O)(=O)Cc2cccc(Cl)c2)CCN1C(=O)Cc1cccs1 (stereo not given) -12.3%
CC[n+]1c(C)cc2c(sc3ccccc32)c1C -6.81%
O=C(NCc1nnc(SCC(=O)N2CCCC2)o1)c1ccc(F)cc1 -4.63%
Cc1cccc(NC(=S)NCc2ccc(F)cc2)c1C 0.735%
CCOC(=O)c1c(C)[nH]c(C)c1C(=O)COC(=O)c1sccc1C 1.05%
CC1=CC(=NOS(=O)(=O)c2ccc(C)cc2)CC(C)(C)C1 0%
CCN(CC)c1ccc(S(=O)(=O)N2CCOCC2)cc1NC(=O)COC(=O)/C=C/c1ccc(C)o1 6.09%

Following part.

Max response, negative = inhibition, active:
Cc1ccc(CN2CCN(/N=C/c3ccc(O)c(O)c3)CC2)cc1 -63.6%
CCCCn1nnnc1C(c1ccc(OC)cc1)N1CCN(C/C=C/c2ccccc2)CC1 (stereo not given) -107%
Cc1ccc(S(=O)(=O)N2CCN(C3CC4CCC3C4)CC2)cc1 (stereo not given) -60.7%
Cc1cccc(C)c1NC(=O)c1ccc2sc([C@@H]3O[C@H](CO)[C@H](O)[C@H](O)[C@H]3O)nc2c1 -51.7%
CCCn1c(=O)c2ccccc2n2c(SCCOc3ccc(Cl)cc3)nnc12 -50.1%
CC(C)CCn1c(-c2nonc2N)nc2ccccc21 -51.2%
CN(C)CCN1CCN(C2CN(Cc3cn(Cc4cccc(C(F)(F)F)c4)nn3)S(=O)(=O)C2)CC1 (stereo not given) -72.1%
Cc1ccc(C)c(NC(=O)CCN2CCN(c3ccccc3F)CC2)c1 -64.1%
Cc1nc(N2CCN(S(=O)(=O)c3ccc(Br)cc3)CC2)c2c(C)c(C)sc2n1 -55%
O=C(c1ccc(F)cc1)C1CCN(Cc2ccc(F)cc2)CC1 -87.8%
CCOC(=O)c1cnc(-n2nc(C)cc2C)nc1NNc1cc(C)nc(-c2ccccc2)n1 -53.4%
CN(C)S(=O)(=O)N(CC(=O)N1CCOCC1)c1ccccc1 -52.3%
COc1ccc(NCc2nc3ccccc3n2CCOc2ccc(C)cc2)cc1 -51.9%

Max response, negative = inhibition, inconclusive:
O=C(CCNS(=O)(=O)c1ccc(Br)cc1)NCC1CCCO1 (stereo not given) -31.1%
COc1ccc2nc(SCC(=O)N3CCCCCC3)c(C#N)cc2c1 -45.7%
COCCn1nnnc1C(c1ccc2ncccc2c1)N1CCN(c2ccccc2F)CC1 (stereo not given) -36.2%
CC(C)(C)OC(=O)N/N=C/c1cc(N=Nc2ccccc2)ccc1O -36.4%
CC(=O)Nc1c(O)nc(SCC(=O)Nc2sc3c(c2C#N)CCCCCC3)[nH]c1=O -34.7%
CC1(C)CC[C@]2(C(=O)n3ccnc3)CC[C@]3(C)[C@H](C(=O)C=C4[C@@]5(C)C=C(C#N)C(=O)C(C)(C)[C@@H]5CC[C@]43C)[C@@H]2C1 -41.7%
Cc1cccc(CCN2C(N(C)C)=NC[C@@H]2Cc2ccccc2)c1 -40.9%
CC1CCCCC1NCC(=O)Nc1ccccc1-c1ccccc1 (stereo not given) -47.3%
O=C(c1ccc(Cl)cc1)N1CCC(O)(CSc2ccc(Cl)cc2)CC1 -34.4%
C=C(C)c1nc(Oc2ccccc2)nc(Oc2ccccc2)n1 -36.3%
OCC1(CCc2ccccc2)CCN(Cc2ccc3nsnc3c2)CC1 -33.8%
COc1ccccc1CN1CCN(Cc2ccco2)CC1 -36.3%
CCC1(c2ccccc2)SC(=O)NC1=O (stereo not given) -34.1%
COc1ccc(OC)c(CNc2ncc(-c3ccc(F)cc3)n2C)c1 -43.6%
Cc1noc(C)c1S(=O)(=O)N1CCCC(C(=O)N2CCN(C3CCCCC3)CC2)C1 (stereo not given) -33.1%
COc1cc(C)ccc1OCCOCCN(C)Cc1ccccc1 -41.8%
COc1ccc(NC(=O)CNc2cc(S(=O)(=O)N3CCOCC3)ccc2NCC2CCCO2)cc1 (stereo not given) -35.9%
COc1ccc(OCC(O)CN2C(=O)c3ccccc3S2(=O)=O)cc1 (stereo not given) -32.9%
O=C(NC1CCCc2ccccc21)C1CCC(CNc2c(N3CCOCC3)c(=O)c2=O)CC1 (stereo not given) -32.9%
C=CCn1c(-c2ccccn2)n[nH]c1=S -37%
CCC[C@@H]1C[C@@H](C(=O)N[C@H]([C@@H](C)O)[C@H]2O[C@H](SC)[C@H](O)[C@@H](O)C2O)N(C)C1 (stereo not given in full) -37.7%
c1ccc(CN2CCCC3(CCCN(Cc4nc(CC5CC5)no4)C3)C2)cc1 (stereo not given) -43.9%
O=S(=O)(c1ccc(Cl)c(Cl)c1)c1snnc1-c1ccccc1 -39.3%
CN1CCN(C(=O)c2ccc3c(c2)N(Cc2ccccc2)CCS3)CC1 -43.4%

Retrieved by compound from the entries so far:
Max response, negative = inhibition, inconclusive:
CC(C)(C)OC(=O)N/N=C/c1cc(N=Nc2ccccc2)ccc1O -36.4%
COc1cc(C)ccc1OCCOCCN(C)Cc1ccccc1 -41.8%
